Data reported in PMC4681064.
No constants are given. Whether binding was seen depends on the method and setting. For part of these data: Binding seen in cells or lysates may run through a third protein. Some entries that bind do so weakly or less than the wild type.

Protein sequences, listed by entry. Tags and fused reporters are not part of them. Residues count along the entry.
UniProt Q9Y5K6: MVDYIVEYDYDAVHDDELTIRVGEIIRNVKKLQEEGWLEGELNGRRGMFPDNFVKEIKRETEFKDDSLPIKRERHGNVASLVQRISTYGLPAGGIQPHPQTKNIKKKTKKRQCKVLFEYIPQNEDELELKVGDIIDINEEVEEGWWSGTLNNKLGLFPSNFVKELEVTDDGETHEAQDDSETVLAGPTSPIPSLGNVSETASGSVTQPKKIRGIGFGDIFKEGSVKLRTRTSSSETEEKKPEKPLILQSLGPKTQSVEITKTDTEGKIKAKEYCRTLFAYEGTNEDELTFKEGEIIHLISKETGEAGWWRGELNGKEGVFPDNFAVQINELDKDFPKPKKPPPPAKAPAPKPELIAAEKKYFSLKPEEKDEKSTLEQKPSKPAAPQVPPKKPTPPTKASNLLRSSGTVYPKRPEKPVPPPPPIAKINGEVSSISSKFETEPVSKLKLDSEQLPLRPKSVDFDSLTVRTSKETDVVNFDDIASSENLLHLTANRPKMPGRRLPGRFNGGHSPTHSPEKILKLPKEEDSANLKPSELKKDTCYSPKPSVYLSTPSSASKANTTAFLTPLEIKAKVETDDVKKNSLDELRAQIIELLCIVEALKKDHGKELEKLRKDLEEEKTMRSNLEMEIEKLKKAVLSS
UniProt P62993: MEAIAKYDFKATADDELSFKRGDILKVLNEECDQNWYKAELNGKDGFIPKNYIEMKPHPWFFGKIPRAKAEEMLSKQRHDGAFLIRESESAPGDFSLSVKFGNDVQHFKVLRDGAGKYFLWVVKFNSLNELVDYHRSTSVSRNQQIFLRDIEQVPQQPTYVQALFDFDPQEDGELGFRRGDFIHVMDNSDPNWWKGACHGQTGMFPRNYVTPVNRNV
UniProt P08631, residues 78-138: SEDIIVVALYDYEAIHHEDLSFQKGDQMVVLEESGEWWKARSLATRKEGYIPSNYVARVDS
UniProt P07948, residues 63-123: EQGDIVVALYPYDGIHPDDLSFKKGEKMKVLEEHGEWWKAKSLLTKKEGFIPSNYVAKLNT

Assays:
[1] = target: Cas ligand with multiple SH3 domains (CMS) with a C-terminal PinPoint tag (UniProt Q9Y5K6); experiment: co-IP
YFP-tagged Grb2 = YFP-tagged Grb2 (UniProt P62993); experiment: co-IP
[2] = target: NS5A-ΔPSTCD fusion protein (WT) expressed from SGR-ΔPSTCD-neo-JFH-1 (hepatitis C virus, genotype 2a, isolate JFH-1) (UniProt Q99IB8); experiment: phage display library screen; NS5A-ΔPSTCD purified from SGR-harbouring cell lysates on streptavidin-magnetic beads used to screen a phage library expressing all 296 human SH3 domains; only the target purified

Molecule: HCV NS5A protein (WT) expressed from SGR-neo-JFH-1 (from UniProt Q99IB8 1977-2442)
- binding [1]: binds
- binding (YFP-tagged Grb2): binds

Molecule: SH3 domain of the Src kinase Hck displayed on phage (from UniProt P08631 78-138) (domain or fragment)
- binding [2]: binds

Molecule: SH3 domain of the Src kinase Lyn displayed on phage (from UniProt P07948 63-123) (domain or fragment)
- binding [2]: binds

B1: SH3 domain of mixed-lineage kinase (Mlk3) displayed on phage (domain or fragment, UniProt Q16584 41-105)
chain: YANPVWTALFDYEPSGQDELALRKGDRVEVLSRDAAISGDEGWWAGQVGGQVGIFPSNYVSRGGG
- binding [2]: binds

B2: SH3 domain of Amphiphysin II displayed on phage (domain or fragment, UniProt O00499 520-593)
chain: GFMFKVQAQHDYTATDTDELQLKAGDVVLVIPFQNPEEQDEGWLMGVKESDWNQHKELEKCRGVFPENFTERVP
- binding [2]: binds
